{"source": "PubChem BioAssay AID504804 | Drosophila RNAi Screening Center | 2011", "assay": "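dsRNAs that improve Kc cell survival under doxorubicin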 (primary screen)", "cell system": "Drosophila Kc cells", "reagent": "long dsRNA against Drosophila genes, 0.5 µg dsRNA per well", "time to read-out": "96 h (48 h knock-down, then 48 h drug)", "challenge": "doxorubicin 5 µg/ml for 48 h, added 48 h after dsRNA", "detection": "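Viability measured as cellular ATP by luminescence after 48 h knock-down then 48 h doxorubicin at 5 µg/ml; unnormalised plate counts for each replicate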", "reading the numbers": "raw ATP luminescence: higher = more viable cells, protection from doxorubicin", "active means": "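z-score of 2 or more over plate mean in both duplicates, retained only when retests and separate dsRNAs confirm the protection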", "note": "The deposit covers about 19,000 reagents; this is an unselected part of those that have a named target and a result. Over the whole deposit, 47 (0.25%) got an active call. 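Signals are raw, not normalised; exact z-scores behind calls not deposited; actives needed confirmation, so some wells reaching 2 SD are inactive.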 The numbers tell different reagents against one gene apart."}
{"gene": "CG7320", "reagent no.": 1, "raw ATP luminescence, replicate 1": 36007, "raw ATP luminescence, replicate 2": 35060, "Outcome": "inactive"}
{"gene": "ind", "reagent no.": 1, "raw ATP luminescence, replicate 1": 24407, "raw ATP luminescence, replicate 2": 18157, "Outcome": "inactive"}
{"gene": "CG17472", "reagent no.": 1, "raw ATP luminescence, replicate 1": 48107, "raw ATP luminescence, replicate 2": 54720, "Outcome": "inactive"}
{"gene": "CG31407", "reagent no.": 1, "raw ATP luminescence, replicate 1": 65843, "raw ATP luminescence, replicate 2": 58400, "Outcome": "inactive"}
{"gene": "Jon65Aii", "reagent no.": 1, "raw ATP luminescence, replicate 1": 72643, "raw ATP luminescence, replicate 2": 62493, "Outcome": "inactive"}
{"gene": "CG1309", "reagent no.": 1, "raw ATP luminescence, replicate 1": 36383, "raw ATP luminescence, replicate 2": 26927, "Outcome": "inactive"}
{"gene": "babos", "reagent no.": 1, "raw ATP luminescence, replicate 1": 61620, "raw ATP luminescence, replicate 2": 69217, "Outcome": "inactive"}
{"gene": "babos", "reagent no.": 2, "raw ATP luminescence, replicate 1": 53710, "raw ATP luminescence, replicate 2": 69727, "Outcome": "inactive"}
{"gene": "zormin", "reagent no.": 1, "raw ATP luminescence, replicate 1": 1.75e5, "raw ATP luminescence, replicate 2": 1.59e5, "Outcome": "inactive"}
{"gene": "zormin", "reagent no.": 2, "raw ATP luminescence, replicate 1": 54513, "raw ATP luminescence, replicate 2": 55900, "Outcome": "inactive"}
{"gene": "CG43317", "reagent no.": 1, "raw ATP luminescence, replicate 1": 80820, "raw ATP luminescence, replicate 2": 61270, "Outcome": "inactive"}
{"gene": "CG5021", "reagent no.": 1, "raw ATP luminescence, replicate 1": 80303, "raw ATP luminescence, replicate 2": 82213, "Outcome": "inactive"}
{"gene": "Catsup", "reagent no.": 1, "raw ATP luminescence, replicate 1": 57207, "raw ATP luminescence, replicate 2": 55630, "Outcome": "inactive"}
{"gene": "CG12818", "reagent no.": 1, "raw ATP luminescence, replicate 1": 68217, "raw ATP luminescence, replicate 2": 65770, "Outcome": "inactive"}
{"gene": "CG4049", "reagent no.": 1, "raw ATP luminescence, replicate 1": 66980, "raw ATP luminescence, replicate 2": 47647, "Outcome": "inactive"}
{"gene": "melt", "reagent no.": 1, "raw ATP luminescence, replicate 1": 66730, "raw ATP luminescence, replicate 2": 79510, "Outcome": "inactive"}
{"gene": "mRpL44", "reagent no.": 1, "raw ATP luminescence, replicate 1": 51073, "raw ATP luminescence, replicate 2": 26407, "Outcome": "inactive"}
{"gene": "CG13102", "reagent no.": 1, "raw ATP luminescence, replicate 1": 39497, "raw ATP luminescence, replicate 2": 79980, "Outcome": "inactive"}
{"gene": "CG15564", "reagent no.": 1, "raw ATP luminescence, replicate 1": 60510, "raw ATP luminescence, replicate 2": 64250, "Outcome": "inactive"}
{"gene": "CG2162", "reagent no.": 1, "raw ATP luminescence, replicate 1": 46547, "raw ATP luminescence, replicate 2": 44897, "Outcome": "inactive"}
{"gene": "GEFmeso", "reagent no.": 1, "raw ATP luminescence, replicate 1": 66890, "raw ATP luminescence, replicate 2": 70190, "Outcome": "inactive"}
{"gene": "CG31245", "reagent no.": 1, "raw ATP luminescence, replicate 1": 64450, "raw ATP luminescence, replicate 2": 74290, "Outcome": "inactive"}
{"gene": "Gpdh1", "reagent no.": 1, "raw ATP luminescence, replicate 1": 1.15e5, "raw ATP luminescence, replicate 2": 73677, "Outcome": "inactive"}
{"gene": "Cyp6w1", "reagent no.": 1, "raw ATP luminescence, replicate 1": 57697, "raw ATP luminescence, replicate 2": 57140, "Outcome": "inactive"}
{"gene": "Prosbeta5R2", "reagent no.": 1, "raw ATP luminescence, replicate 1": 2.82e5, "raw ATP luminescence, replicate 2": 2.70e5, "Outcome": "inactive"}
{"gene": "CG33919", "reagent no.": 1, "raw ATP luminescence, replicate 1": 76577, "raw ATP luminescence, replicate 2": 78057, "Outcome": "inactive"}
{"gene": "Wnt10", "reagent no.": 1, "raw ATP luminescence, replicate 1": 2.84e5, "raw ATP luminescence, replicate 2": 3.11e5, "Outcome": "inactive"}
{"gene": "Wnt10", "reagent no.": 2, "raw ATP luminescence, replicate 1": 31447, "raw ATP luminescence, replicate 2": 28513, "Outcome": "inactive"}

Reformatted: 2 of the entries above
zormin #2 — raw ATP luminescence, replicate 1: 54513; raw ATP luminescence, replicate 2: 55900; Outcome: inactive
CG43317 — raw ATP luminescence, replicate 1: 80820; raw ATP luminescence, replicate 2: 61270; Outcome: inactive
